# Assay results taken from PMC5399287.
# Protein sequences, listed by entry. Tags and fused reporters are not part of them. Residues count along the entry.
# UniProt Q92743, residues 23-480: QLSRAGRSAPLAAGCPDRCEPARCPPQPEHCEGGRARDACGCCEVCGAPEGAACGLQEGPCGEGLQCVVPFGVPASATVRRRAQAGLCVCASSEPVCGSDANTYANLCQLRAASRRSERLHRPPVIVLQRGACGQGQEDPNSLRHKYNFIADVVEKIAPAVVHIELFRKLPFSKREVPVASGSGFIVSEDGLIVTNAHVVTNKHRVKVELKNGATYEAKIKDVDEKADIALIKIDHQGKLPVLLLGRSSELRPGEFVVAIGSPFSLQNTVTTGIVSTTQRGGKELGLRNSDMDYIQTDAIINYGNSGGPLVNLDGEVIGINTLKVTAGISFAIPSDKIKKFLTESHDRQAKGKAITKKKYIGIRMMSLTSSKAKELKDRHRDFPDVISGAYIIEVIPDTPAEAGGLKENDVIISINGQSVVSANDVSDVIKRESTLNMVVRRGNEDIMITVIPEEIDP
# Results are given in words; binding and its absence hold for the method and conditions named. Some entries that bind do so weakly or less than the wild type.
# Biological target: HTRA1 (high-temperature requirement A serine peptidase 1) (human (endogenous in MDA-MB-231)) (UniProt Q92743)
# Experiment: native gel or EMSA; Blue NativePAGE 3-12% of concentrated serum-free culture medium of MDA-MB-231 cells, blot with anti-HTRA1; control or LOX-depleted cells, or cells treated with CCT365623 or BAPN
substance,measurement,value
HTRA1 (high-temperature requirement A serine peptidase 1) (from UniProt Q92743 23-480) (enzyme),binding,binds
